The target of experiment [1] is hnRNPAB of the co-immunoprecipitation assays of Figure S10B,C (human) (UniProt Q99729). Kind of experiment: co-IP; co-immunoprecipitation assays of Figure S10B,C; cells and constructs not given.
The target of experiment [2] is hnRNPAB Lys91Arg mutant (human) (UniProt Q99729). Description: co-IP; immunoprecipitation of wild-type or Lys91Arg hnRNPAB in the RIP assays of Figure S11E, TRIM25 binding compared; cells and constructs not given.
Experiment [3] concerns the target hnRNPAB in ESCC cell lines transfected with MYC-TRIM25 and tRF-22 plasmids (human (endogenous in ESCC cell lines)) (UniProt Q99729). Description: co-IP; lysates of ESCC cell lines co-transfected with MYC-TRIM25-WT/ΔPS and tRF-22 overexpression or knock-down plasmids; immunoprecipitation and immunoblotting.
For experiment [4], the target named is FLAG-tagged wild-type hnRNPAB (heterogeneous nuclear ribonucleoprotein A/B), full-length (human) (UniProt Q99729). Description: co-IP; truncation mapping: FLAG-hnRNPAB constructs (full-length or truncated) with MYC-TRIM25, and MYC-TRIM25 constructs (full-length or truncated) with FLAG-hnRNPAB; immunoblots.

Protein sequences, listed by entry. Tags and fused reporters are not part of them. Lines headed by an entry give the natural chain unless they say otherwise; changes in a name come on top. Chains listed by the source or under a name are the forms on record and can include a tag or linker.
UniProt Q99729: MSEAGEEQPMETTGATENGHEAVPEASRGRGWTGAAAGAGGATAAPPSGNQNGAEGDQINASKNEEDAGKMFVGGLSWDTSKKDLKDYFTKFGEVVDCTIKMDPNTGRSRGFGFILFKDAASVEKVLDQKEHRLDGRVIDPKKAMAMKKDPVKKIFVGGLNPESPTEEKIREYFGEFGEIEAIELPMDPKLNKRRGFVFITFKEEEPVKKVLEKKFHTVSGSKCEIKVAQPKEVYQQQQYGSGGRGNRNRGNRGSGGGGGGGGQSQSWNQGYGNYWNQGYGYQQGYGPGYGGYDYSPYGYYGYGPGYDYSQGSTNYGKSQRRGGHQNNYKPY
hnRNPAB Lys91Arg mutant (Q99729, form named): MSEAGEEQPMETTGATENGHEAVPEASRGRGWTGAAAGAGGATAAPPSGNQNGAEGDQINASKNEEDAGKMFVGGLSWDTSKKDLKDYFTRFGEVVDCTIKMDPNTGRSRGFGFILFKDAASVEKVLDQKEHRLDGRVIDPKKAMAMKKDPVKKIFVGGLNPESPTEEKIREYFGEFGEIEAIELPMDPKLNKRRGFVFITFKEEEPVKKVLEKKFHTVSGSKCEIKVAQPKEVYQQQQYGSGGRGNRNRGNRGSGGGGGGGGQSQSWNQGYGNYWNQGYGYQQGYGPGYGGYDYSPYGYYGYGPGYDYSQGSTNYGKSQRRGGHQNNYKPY
UniProt Q14258: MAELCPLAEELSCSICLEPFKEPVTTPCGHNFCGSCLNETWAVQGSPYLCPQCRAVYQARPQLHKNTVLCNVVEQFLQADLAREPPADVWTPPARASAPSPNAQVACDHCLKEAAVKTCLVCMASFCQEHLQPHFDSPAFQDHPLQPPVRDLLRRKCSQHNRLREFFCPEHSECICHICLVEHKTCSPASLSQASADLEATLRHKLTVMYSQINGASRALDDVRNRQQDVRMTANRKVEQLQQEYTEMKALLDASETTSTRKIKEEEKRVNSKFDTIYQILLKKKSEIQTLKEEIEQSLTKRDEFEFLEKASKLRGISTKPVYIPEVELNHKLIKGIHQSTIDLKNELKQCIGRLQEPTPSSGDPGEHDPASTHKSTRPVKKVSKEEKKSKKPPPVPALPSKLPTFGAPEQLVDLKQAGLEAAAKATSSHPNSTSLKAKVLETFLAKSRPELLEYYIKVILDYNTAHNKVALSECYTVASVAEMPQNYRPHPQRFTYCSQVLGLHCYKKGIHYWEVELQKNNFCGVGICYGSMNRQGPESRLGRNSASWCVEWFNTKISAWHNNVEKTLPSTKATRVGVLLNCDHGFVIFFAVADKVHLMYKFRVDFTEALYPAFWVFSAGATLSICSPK

Results are given in words; binding and its absence hold for the method and conditions named. In cells and extracts the contact can be indirect. Some binding calls cover weakened binding; strength is not graded here.

As for “TRIM25 of the supplementary co-immunoprecipitations (Figures S10B,C and S11E) (from UniProt Q14258 1-630) (enzyme)”, the binding entry in experiment [1] and in experiment [2] was “binds” in each case.
As for “MYC-tagged wild-type TRIM25, full-length (from UniProt Q14258 1-630) (enzyme)”, the binding result in experiment [3] and in experiment [4] was “binds” each time.
